Reference: PubChem BioAssay AID504444 (National Center for Advancing Translational Sciences (NCATS), 2011)
About 7,500 (2.1%) of roughly 360,000 compounds were called active. Inconclusive results, whose numbers are uncertain, are shown with a selection of clear calls. Calls follow the shape of the dose curve; as a rule, active = well fitted inhibition curve with a large enough effect; inconclusive = small, poorly fitted or top-dose-only effect, or effect the other way; inactive = flat fitted curve, though single readings scatter. Potencies of inconclusive entries are doubtful fits and often do not repeat.

Assay: Nrf2 qHTS screen for inhibitors; also: nearly all actives have a fitted effect of over 60% in size
Details: A549 ARE-Fluc reporter, luciferase luminescence, 18-24 h; series mostly up to 46 µM
Summary of the method: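 Concentration-response testing used A549 ARE_Fluc cells at 5000 cells/well. Following an 18-24 h compound incubation, viability was read by fluorescence (Ex 405/Em 525) and luciferase output by luminescence.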
Potency is read from the fitted curve at half-maximal effect.

Row | SMILES | Potency
1 | CCCCOc1ccccc1C(=O)N(Cc1ccc(C)o1)C1CCS(=O)(=O)C1 (stereo not drawn) | inconclusive: 25.9 µM [activator, partial curve]
2 | COC(=O)c1cc(C(=O)Nc2nnc(C3CC3)s2)cc([N+](=O)[O-])c1 | inconclusive: 7.31 µM [falling, full curve, poor fit]
3 | O=C(O)CSc1c2c(nc3cc(C(=O)Nc4ccc(F)c(Cl)c4)ccc13)CCC2 | inconclusive: 23.1 µM [activator, single point]
4 | CCC1CCCCN1C(=S)NC(=O)c1ccc(F)c(S(=O)(=O)N2CCOCC2)c1 (stereo not drawn) | inconclusive: 16.4 µM [falling, partial curve, poor fit]
5 | CC1(C)Cc2cccc(OCC(=O)N3CCN(c4cccc(Cl)c4)CC3)c2O1 | inactive
6 | Cc1nccn1C(c1ccccc1)c1ccccc1 | inactive
7 | Cc1oc(-c2ccc(Cl)cc2)nc1CN1CCCC(C(=O)N2CCOCC2)C1 (stereo not drawn) | inconclusive: 14.6 µM [activator, partial curve, poor fit]
8 | O=c1c(S(=O)(=O)c2ccccc2)cn(Cc2ccccc2)c2cc(N3CCOCC3)c(F)cc12 | inconclusive: 20.6 µM [falling, single point]
9 | O=C(/C=C/c1ccco1)Nc1cccc(-c2nc3ccccc3[nH]2)c1 | inconclusive: 16.4 µM [activator, single point]
10 | Cn1cc(Cl)c(C(=O)OCC(=O)Nc2nc(-c3ccc(Br)cc3)cs2)n1 | inactive
11 | CC(C(=O)NCc1ccccc1F)n1ccc2cc(S(=O)(=O)N3CCCC3)ccc21 (stereo not drawn) | inactive
12 | CCOC(=O)N1CCN(c2c(NCC3CCCO3)c(=O)c2=O)CC1 (stereo not drawn) | inconclusive: 23.1 µM [activator, partial curve, poor fit]
13 | CC(=O)OC1[C@H](Oc2c(O)c(C)c3c4c2[C@@H](C)CC[C@@H]4[C@@H](C)C[C@@H]3C=C(C)C)OC[C@@H](O)[C@@H]1O (stereo partly drawn) | inactive
14 | Cc1ccc(-c2onc3ccc(C(=O)O)cc23)cc1 | inconclusive: 6.51 µM [activator, partial curve]
15 | CCN(CC)C(=S)Sc1c(-c2ccccc2)c2cc(Cl)ccc2[nH]c1=O | inconclusive: 29.1 µM [falling, single point]
16 | COc1ccc(Br)cc1C(=O)Nc1nc2ccc(F)cc2s1 | inconclusive: 2.59 µM [activator, partial curve, poor fit]
17 | NS(=O)(=O)c1ccc(N2N=C(c3ccccc3)CC2c2cccc(F)c2)cc1 (stereo not drawn) | inactive
18 | CC(=O)N1CCCc2cc(S(=O)(=O)N3CCCC(C(=O)Nc4ccccc4C)C3)ccc21 (stereo not drawn) | inconclusive: 10.3 µM [falling, partial curve]
19 | O=C(CNc1ccccc1)Nc1ccc(F)cc1 | inconclusive: 8.2 µM [activator, partial curve]
20 | Cc1nn(Cc2ccccc2)c(C)c1NC(=O)c1cc(-c2cccs2)on1 | inconclusive: 23.1 µM [falling, single point]
21 | O=C(CC12CC3CC(CC(C3)C1)C2)NC1CC1 | inactive
22 | O=S(=O)(NCc1cn2ccsc2n1)c1ccc(Oc2ccccc2)cc1 | active: 7.31 µM
23 | Cc1cccc(-c2ocnc2C(=O)Nc2ccccc2NC(=O)c2ccccn2)c1 | inconclusive: 0.411 µM [activator, full curve, poor fit]

2 of these compounds, set out differently:
Row,SMILES,Potency
10,Cn1cc(Cl)c(C(=O)OCC(=O)Nc2nc(-c3ccc(Br)cc3)cs2)n1,inactive
19,O=C(CNc1ccccc1)Nc1ccc(F)cc1,"inconclusive: 8.2 µM [activator, partial curve]"

Fetched one by one from above:
Row | SMILES | Potency
13 | CC(=O)OC1[C@H](Oc2c(O)c(C)c3c4c2[C@@H](C)CC[C@@H]4[C@@H](C)C[C@@H]3C=C(C)C)OC[C@@H](O)[C@@H]1O (stereo partly drawn) | inactive
21 | O=C(CC12CC3CC(CC(C3)C1)C2)NC1CC1 | inactive

Next records follow:

Row | SMILES | Potency
24 | COc1ccc(CNC(=O)CN2C(=O)c3cccnc3Oc3ccc(C)cc32)cc1 | inactive
25 | O=C(Cc1ccccc1)Nc1ccc2c(c1)OC1(CCCC1)O2 | inconclusive: 1.84 µM [activator, full curve, poor fit]
26 | CCS(=O)(=O)Nc1ccc(C2=NN(C(=S)Nc3ccccc3)C(c3ccco3)C2)cc1 (stereo not drawn) | inconclusive: 13 µM [activator, partial curve, poor fit]
27 | Cc1cccc(C(=O)NCC(=O)N2CCN(c3ccc(Cl)cc3)CC2)c1 | inconclusive: 23.1 µM [falling, partial curve, poor fit]
28 | Cc1cc(C)c2c(CC(=O)Nc3c(C(=O)Nc4ccc(Cl)cc4)oc4ccccc34)coc2c1 | inconclusive: 23.1 µM [falling, partial curve]
29 | CCc1cccc(C)c1NC(=O)CSc1nnc(CC)n2c1cc1occc12 | inconclusive: 20.6 µM [falling, single point]
30 | CCOC(=O)C1(Cc2ccccc2C(F)(F)F)CCN(C(C)CSC)CC1 (stereo not drawn) | inconclusive: 1.3 µM [falling, partial curve, poor fit]
31 | COc1cc(NC(=O)c2ccc([N+](=O)[O-])o2)ccc1NC(=O)c1cccs1 | inactive
32 | C/C(=N/NC(=O)c1ccc(Cl)cc1Cl)c1cccnc1 | inconclusive: 18.4 µM [activator, partial curve, poor fit]
33 | COC(=O)c1cccc(NC(=O)c2cccnc2C(=O)O)c1C | inconclusive: 1.16 µM [falling, full curve, poor fit]
34 | CC(=NNc1ccc([N+](=O)[O-])cn1)c1ccccc1 | inconclusive: 5.8 µM [activator, partial curve]
35 | O=C(NCCc1ccccc1)c1cccc(Br)c1 | inactive
36 | COc1ccc(N2CCN(c3oc(/C=C/c4cc(OC)c(OC)c(OC)c4)nc3C#N)CC2)cc1 | inactive
37 | COc1cc(C(=O)Nc2ccc3oc(-c4ccc(C)c(Br)c4)nc3c2)cc(OC)c1OC | inactive
38 | O=C(Nc1ccncc1)C1CC1c1ccccc1 (stereo not drawn) | inconclusive: 15.8 µM [falling, single point]
39 | O=C(CCc1ccc(Oc2cc([N+](=O)[O-])cc([N+](=O)[O-])c2)cc1)N1CCCCC1 | inactive
40 | Cc1cccc(NC(=O)C2C(c3ccccc3)C2(Cl)Cl)c1 (stereo not drawn) | inconclusive: 18.4 µM [falling, single point]
41 | CC12CCC(C[N+](C)(C)C1)C2(C)C (stereo not drawn) | inactive
42 | CN1C2CCC1CC(NS(=O)(=O)c1cc(Cl)c(Cl)cc1Cl)C2 (stereo not drawn) | inactive
43 | COc1ccc(C(=O)O)cc1NC(=S)NC(=O)c1ccc(-c2ccc(Cl)cc2)o1 | inconclusive: 25.9 µM [activator, single point]
44 | COc1cc(OC)c2c(-c3ccccc3)cc(=O)oc2c1C(CCN1CCOCC1)c1ccc(N(C)C)cc1 (stereo not drawn) | inconclusive: 29.1 µM [falling, single point]
45 | COC(=O)c1sc(S(=O)(=O)N2CCN(c3ccccc3)CC2)c(C(=O)OC)c1C | inconclusive: 29.1 µM [falling, single point]
46 | O=C(Nc1cccc2cccnc12)OCc1ccccc1 | inactive

Row | SMILES | Potency
47 | O=C(Cc1n[nH]c(=O)c2ccccc12)OCC(=O)c1ccc2c(c1)OCCO2 | inconclusive: 3.66 µM [falling, full curve]
48 | O=C(NCCc1ccccc1)c1cnn(-c2ccc(F)cc2)c1-n1cccc1 | inconclusive: 0.082 µM [activator, full curve, poor fit]
49 | CN(CCc1ccccc1)C(=O)c1ccc(NC(=O)Cc2ccc(NC(=O)C3CCCN(C(=O)C4CCCC4)C3)cc2)cc1 (stereo not drawn) | inconclusive: 29.1 µM [falling, partial curve, poor fit]
50 | CCOC(=O)N1CCc2c(sc3c2c(=O)n(CCc2ccccc2)c(=O)n3Cc2c(F)cccc2Cl)C1 | inactive
51 | N#C/C(=C/c1ccc(OCc2ccc(C(=O)O)cc2)c(Br)c1)c1cccc(F)c1 | inconclusive: 29.1 µM [activator, single point]
52 | CCC1CC=CC2C1C(=O)N(Cc1ccccc1)C2c1cc(C)ccc1F (stereo not drawn) | inactive
53 | CNC(=S)N1N=C(c2ccc(C)cc2)CC1c1cc(OC)ccc1OC (stereo not drawn) | inconclusive: 32.6 µM [falling, single point]
54 | O=C(O)CCN1c2cccc3cccc(c23)S1(=O)=O | inconclusive: 29.1 µM [falling, single point]
55 | Cc1nc2ncnn2c(C)c1Cc1cccc(C(F)(F)F)c1 | inconclusive: 20.6 µM [falling, partial curve, poor fit]
56 | CCc1nnc(NC(=O)C2CCCN2C(=O)Nc2ccccc2OC)s1 (stereo not drawn) | inactive
57 | CCSc1ncc(Cl)c(C(=O)Nc2ccc(S(=O)(=O)N(C)c3ccccc3)cc2)n1 | inconclusive: 32.6 µM [falling, partial curve, poor fit]
58 | O=c1[nH]c(N/N=C\c2ccc(F)cc2)nc2ccccc12 | inconclusive: 2.91 µM [activator, full curve, poor fit]
59 | CCOC(=O)c1cc2sccc2n1CC(=O)Nc1ccc(OC)cc1 | inconclusive: 18.4 µM [falling, single point]
60 | O=C(N/N=C/c1sc(N2CCOCC2)nc1-c1ccccc1)c1ccc(O)cc1 | inactive
61 | Cc1ccc(NC(=O)c2ccc(Cl)nc2)cc1S(=O)(=O)N1CCOCC1 | inactive
62 | COc1ccc(NC(=O)CC2C(=O)NCCN2C(=O)c2ccc(Cl)cc2)cc1 (stereo not drawn) | inconclusive: 3.26 µM [falling, single point]
63 | Cc1cc2nnc(SCC(=O)NC3CCCCC3)n2c(N)n1 | inconclusive: 23.1 µM [activator, partial curve, poor fit]
64 | Cc1nnsc1C(=O)NC1CCCc2c1cnn2-c1ccc(F)cc1F (stereo not drawn) | active: 1.16 µM
65 | CCCNc1ccc(C(=O)OCC)cc1[N+](=O)[O-] | inconclusive: 8.2 µM [activator, partial curve]
66 | CCOc1cc(N2CCOCC2)c(OCC)cc1NC(=O)Cn1cnc2c(=O)n(C)c(=O)n(C)c21 | inactive
67 | C/C(=N\NC(=O)CSc1nc2ccccc2c(=O)n1-c1ccccc1C)c1cccs1 | inconclusive: 13 µM [falling, partial curve, poor fit]
68 | COc1ccccc1N=CC=C1OC(C)(C)C(C)(C)O1 | inconclusive: 23.1 µM [activator, single point]
